Reference: the supplement of paper PMC12067093, “Discovery and optimisation of a covalent ligand for TRIM25 and its application to targeted protein ubiquitination” (Chemical Science, 2025)
The other results are listed elsewhere or left out.

Protein sequences, listed by entry. Tags and fused reporters are not part of them. Lines headed by an entry give the natural chain unless they say otherwise; changes in a name come on top.
UniProt P49368: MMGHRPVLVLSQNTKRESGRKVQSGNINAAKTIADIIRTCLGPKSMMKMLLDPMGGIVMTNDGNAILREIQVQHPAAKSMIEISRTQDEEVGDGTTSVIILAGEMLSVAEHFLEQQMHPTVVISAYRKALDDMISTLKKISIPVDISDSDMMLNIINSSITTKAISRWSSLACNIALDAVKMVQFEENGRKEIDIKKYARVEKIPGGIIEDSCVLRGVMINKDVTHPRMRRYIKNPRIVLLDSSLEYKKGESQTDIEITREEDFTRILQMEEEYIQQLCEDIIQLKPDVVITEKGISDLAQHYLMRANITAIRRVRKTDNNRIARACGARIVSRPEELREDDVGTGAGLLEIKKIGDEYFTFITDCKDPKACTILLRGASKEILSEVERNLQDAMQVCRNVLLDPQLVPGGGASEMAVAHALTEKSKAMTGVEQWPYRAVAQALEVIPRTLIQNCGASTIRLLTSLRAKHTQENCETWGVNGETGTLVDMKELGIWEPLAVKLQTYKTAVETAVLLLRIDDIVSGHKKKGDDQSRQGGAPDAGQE
UniProt P07384: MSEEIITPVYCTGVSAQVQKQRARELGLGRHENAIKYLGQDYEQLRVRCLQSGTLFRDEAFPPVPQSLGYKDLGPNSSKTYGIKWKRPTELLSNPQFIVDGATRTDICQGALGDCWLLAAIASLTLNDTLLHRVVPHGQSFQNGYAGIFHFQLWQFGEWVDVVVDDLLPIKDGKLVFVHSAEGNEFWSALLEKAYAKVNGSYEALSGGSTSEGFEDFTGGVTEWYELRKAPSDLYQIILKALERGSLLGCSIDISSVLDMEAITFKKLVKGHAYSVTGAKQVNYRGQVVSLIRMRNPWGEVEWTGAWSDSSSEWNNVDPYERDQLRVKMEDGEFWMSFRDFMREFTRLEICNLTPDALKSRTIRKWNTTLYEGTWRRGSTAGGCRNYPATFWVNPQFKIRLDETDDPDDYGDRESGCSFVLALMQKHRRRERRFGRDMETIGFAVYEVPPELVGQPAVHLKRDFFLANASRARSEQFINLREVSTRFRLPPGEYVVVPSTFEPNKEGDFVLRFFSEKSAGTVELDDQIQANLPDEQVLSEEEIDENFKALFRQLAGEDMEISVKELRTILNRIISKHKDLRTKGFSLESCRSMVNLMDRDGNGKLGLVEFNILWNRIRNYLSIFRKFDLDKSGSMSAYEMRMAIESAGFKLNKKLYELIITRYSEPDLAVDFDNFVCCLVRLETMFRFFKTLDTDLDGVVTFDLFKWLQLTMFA
UniProt P04040: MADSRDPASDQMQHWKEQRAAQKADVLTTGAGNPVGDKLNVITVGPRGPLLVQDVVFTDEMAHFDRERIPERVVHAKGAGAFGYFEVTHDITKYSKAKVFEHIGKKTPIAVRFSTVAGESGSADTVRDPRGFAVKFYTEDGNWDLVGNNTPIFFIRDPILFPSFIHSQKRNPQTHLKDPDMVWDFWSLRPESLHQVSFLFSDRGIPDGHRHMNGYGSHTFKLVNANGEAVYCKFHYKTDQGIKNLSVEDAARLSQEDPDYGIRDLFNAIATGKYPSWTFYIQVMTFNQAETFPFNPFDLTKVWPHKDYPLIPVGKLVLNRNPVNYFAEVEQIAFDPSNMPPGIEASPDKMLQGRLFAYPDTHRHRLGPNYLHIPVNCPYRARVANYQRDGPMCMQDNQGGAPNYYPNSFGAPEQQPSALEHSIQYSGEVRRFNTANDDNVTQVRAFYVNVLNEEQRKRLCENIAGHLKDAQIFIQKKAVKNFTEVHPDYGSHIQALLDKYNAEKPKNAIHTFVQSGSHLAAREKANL
UniProt P78371: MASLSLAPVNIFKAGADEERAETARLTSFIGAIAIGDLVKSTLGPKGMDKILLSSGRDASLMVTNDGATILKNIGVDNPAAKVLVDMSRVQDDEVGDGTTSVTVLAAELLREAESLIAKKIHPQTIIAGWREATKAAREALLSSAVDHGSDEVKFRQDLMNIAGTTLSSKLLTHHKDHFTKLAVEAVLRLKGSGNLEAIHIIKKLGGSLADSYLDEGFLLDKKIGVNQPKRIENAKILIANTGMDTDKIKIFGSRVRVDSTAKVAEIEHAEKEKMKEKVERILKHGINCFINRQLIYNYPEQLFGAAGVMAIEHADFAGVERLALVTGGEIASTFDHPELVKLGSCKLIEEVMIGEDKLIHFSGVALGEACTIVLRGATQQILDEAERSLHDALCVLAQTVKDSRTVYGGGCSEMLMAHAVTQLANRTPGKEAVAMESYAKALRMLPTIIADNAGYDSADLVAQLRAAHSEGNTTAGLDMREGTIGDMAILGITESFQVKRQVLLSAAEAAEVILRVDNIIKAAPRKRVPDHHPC
UniProt Q13951, whole entry, looked up: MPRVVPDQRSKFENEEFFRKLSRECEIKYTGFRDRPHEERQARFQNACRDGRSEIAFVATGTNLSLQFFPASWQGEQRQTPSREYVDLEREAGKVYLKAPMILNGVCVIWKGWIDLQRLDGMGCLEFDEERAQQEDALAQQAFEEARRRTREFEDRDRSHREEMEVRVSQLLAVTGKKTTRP
UniProt P42575: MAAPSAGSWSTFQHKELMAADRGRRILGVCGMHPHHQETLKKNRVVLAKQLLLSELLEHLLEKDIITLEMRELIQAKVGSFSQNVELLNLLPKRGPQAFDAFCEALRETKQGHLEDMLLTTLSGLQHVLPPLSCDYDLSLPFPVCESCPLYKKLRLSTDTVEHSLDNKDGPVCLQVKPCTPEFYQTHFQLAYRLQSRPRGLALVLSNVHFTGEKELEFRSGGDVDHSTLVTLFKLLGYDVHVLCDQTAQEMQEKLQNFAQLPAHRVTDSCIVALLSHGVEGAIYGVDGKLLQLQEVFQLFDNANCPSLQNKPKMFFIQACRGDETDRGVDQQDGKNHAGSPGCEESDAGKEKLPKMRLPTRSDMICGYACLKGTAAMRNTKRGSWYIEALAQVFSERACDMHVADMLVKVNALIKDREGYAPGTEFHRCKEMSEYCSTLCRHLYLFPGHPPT
UniProt P47756, whole entry, looked up: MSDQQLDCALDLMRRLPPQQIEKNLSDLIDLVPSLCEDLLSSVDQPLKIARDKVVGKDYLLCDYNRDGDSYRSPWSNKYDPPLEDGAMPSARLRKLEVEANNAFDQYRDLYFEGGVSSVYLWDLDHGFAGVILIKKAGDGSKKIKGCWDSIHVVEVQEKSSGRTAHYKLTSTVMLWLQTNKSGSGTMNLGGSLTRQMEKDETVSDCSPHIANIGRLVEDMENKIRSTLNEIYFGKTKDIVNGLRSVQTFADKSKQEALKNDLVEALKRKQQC
UniProt O60826, whole entry, looked up: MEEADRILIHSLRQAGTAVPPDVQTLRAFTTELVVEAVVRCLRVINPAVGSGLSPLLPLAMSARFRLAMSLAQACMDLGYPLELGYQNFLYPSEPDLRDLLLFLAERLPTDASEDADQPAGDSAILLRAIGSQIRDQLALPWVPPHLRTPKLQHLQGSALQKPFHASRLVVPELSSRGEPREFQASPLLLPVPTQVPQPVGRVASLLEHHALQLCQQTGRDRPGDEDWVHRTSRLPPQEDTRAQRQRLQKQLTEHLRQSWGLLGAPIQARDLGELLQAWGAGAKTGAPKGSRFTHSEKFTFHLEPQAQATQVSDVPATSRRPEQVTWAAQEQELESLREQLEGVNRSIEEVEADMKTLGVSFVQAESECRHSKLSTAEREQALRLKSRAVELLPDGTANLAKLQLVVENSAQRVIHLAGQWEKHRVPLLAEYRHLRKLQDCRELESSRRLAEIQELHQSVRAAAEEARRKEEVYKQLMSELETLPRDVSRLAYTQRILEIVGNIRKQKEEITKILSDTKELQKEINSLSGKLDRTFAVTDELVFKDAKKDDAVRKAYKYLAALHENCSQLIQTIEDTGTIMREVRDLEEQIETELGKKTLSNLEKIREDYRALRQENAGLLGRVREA
UniProt Q9H257: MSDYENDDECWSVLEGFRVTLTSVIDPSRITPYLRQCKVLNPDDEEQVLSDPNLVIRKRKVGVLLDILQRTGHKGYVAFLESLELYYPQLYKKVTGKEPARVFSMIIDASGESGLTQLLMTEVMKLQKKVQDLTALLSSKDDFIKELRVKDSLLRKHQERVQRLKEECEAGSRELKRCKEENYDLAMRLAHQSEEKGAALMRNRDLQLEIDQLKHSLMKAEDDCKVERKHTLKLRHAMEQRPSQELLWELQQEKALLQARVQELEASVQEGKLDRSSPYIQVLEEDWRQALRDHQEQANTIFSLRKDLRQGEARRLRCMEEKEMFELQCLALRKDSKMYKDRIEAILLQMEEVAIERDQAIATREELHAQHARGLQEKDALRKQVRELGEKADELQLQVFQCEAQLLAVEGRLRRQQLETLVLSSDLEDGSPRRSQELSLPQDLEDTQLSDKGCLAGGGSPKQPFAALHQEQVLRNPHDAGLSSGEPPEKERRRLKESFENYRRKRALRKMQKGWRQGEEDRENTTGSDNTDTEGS
UniProt A6NC98: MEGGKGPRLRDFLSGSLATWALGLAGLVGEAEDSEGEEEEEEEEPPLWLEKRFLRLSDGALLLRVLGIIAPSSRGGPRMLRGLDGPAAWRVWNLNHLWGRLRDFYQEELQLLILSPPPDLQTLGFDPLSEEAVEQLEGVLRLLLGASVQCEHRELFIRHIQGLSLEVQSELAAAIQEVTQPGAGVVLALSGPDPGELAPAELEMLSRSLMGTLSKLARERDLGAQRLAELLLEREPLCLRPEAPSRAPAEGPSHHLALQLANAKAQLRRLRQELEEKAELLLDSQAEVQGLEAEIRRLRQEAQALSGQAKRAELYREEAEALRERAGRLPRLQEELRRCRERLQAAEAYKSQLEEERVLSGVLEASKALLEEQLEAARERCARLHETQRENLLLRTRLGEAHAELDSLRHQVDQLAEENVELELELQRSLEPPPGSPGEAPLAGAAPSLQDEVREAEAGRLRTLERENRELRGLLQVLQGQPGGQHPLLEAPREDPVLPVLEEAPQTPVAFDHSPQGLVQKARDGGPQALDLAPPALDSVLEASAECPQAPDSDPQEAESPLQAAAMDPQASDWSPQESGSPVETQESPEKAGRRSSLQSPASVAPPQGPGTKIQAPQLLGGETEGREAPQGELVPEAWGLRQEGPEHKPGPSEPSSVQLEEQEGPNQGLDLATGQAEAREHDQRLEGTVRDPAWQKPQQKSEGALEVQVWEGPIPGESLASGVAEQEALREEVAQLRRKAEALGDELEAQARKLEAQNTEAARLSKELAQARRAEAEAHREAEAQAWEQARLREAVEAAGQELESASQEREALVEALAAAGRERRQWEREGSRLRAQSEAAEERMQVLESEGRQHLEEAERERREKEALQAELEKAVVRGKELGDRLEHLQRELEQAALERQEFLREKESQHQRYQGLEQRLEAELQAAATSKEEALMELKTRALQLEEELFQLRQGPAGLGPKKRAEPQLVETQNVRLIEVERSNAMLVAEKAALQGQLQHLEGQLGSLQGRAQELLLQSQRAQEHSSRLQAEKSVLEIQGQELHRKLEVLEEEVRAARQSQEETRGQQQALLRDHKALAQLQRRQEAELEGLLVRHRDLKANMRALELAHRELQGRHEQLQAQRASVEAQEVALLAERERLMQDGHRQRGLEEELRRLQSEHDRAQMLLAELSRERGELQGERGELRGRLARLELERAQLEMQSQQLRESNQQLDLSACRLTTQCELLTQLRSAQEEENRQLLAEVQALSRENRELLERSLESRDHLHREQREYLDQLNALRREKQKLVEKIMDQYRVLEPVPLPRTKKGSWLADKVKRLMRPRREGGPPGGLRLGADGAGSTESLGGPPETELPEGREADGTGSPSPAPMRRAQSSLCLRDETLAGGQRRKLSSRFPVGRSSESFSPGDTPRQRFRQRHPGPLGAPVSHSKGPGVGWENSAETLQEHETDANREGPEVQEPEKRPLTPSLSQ
UniProt Q14790: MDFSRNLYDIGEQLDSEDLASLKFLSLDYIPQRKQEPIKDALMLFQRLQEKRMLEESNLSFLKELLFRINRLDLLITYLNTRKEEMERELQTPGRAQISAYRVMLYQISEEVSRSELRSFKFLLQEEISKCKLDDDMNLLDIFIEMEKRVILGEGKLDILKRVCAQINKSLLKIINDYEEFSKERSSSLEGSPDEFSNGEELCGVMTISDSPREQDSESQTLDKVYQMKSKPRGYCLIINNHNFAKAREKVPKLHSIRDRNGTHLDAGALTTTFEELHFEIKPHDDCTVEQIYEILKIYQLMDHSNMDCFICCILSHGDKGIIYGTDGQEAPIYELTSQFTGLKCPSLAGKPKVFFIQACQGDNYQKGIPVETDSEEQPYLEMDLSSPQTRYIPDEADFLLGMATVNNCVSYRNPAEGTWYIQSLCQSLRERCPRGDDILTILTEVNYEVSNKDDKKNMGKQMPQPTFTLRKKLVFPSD

Compound: Cc1cc(ccc1-c1ccccc1)C(=O)N1CCCN(CC1)C(=O)CCl [compound 10]
Test: probe-labelled cysteine peptide fold change vs DMSO (competition) (log2 fold change); higher = less target engagement (more negative = stronger competition)
Settings: THP-1, incubation time: 4 h
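Also: competitive profiling in live THP-1 cells: cysteine peptides tagged with an iodoacetamide desthiobiotin (IA-DTB) probe, intensity after compound treatment relative to DMSO-treated cells.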

CCT3_P49368_366_IGDEYFTFITDCK (UniProt P49368)
probe-labelled cysteine peptide fold change (10 µM): -0.0468
probe-labelled cysteine peptide fold change (50 µM): -0.827

CAPN1_P07384_677_YSEPDLAVDFDNFVCCLVR (UniProt P07384)
probe-labelled cysteine peptide fold change (10 µM): 0.308
probe-labelled cysteine peptide fold change (50 µM): 0.345

CAT_P04040_232_LVNANGEAVYCK (UniProt P04040)
probe-labelled cysteine peptide fold change (10 µM): 0.122
probe-labelled cysteine peptide fold change (50 µM): 0.0935

CCT2_P78371_535_VPDHHPC (UniProt P78371)
probe-labelled cysteine peptide fold change (10 µM): 0.162
probe-labelled cysteine peptide fold change (50 µM): 0.187

CAPZA2_P47755_111_EATDPRPCEVENAVESWR (UniProt P47755)
probe-labelled cysteine peptide fold change (10 µM): -0.035
probe-labelled cysteine peptide fold change (50 µM): 0.0145

CBFB_Q13951_107_APMILNGVCVIWK (UniProt Q13951)
probe-labelled cysteine peptide fold change (10 µM): 0.0757
probe-labelled cysteine peptide fold change (50 µM): 0.0712

CBL_P22681_572_RPLPCTPGDCPSR (UniProt P22681)
probe-labelled cysteine peptide fold change (10 µM): -0.054
probe-labelled cysteine peptide fold change (50 µM): -0.0885

CCT2_P78371_371_LIHFSGVALGEACTIVLR (UniProt P78371)
probe-labelled cysteine peptide fold change (10 µM): 0.267
probe-labelled cysteine peptide fold change (50 µM): -0.0613

CAPZA2_P47755_157_KIDGQQTIIACIESHQFQAK (UniProt P47755)
probe-labelled cysteine peptide fold change (10 µM): 0.062
probe-labelled cysteine peptide fold change (50 µM): -0.00567

CASP2_P42575_244_LLGYDVHVLCDQTAQEMQEK (UniProt P42575)
probe-labelled cysteine peptide fold change (10 µM): -0.000221
probe-labelled cysteine peptide fold change (50 µM): 0.0104

CCNY_Q8ND76_39_EDTGCNLQHISDRENIDDLNMEFNPSDHPR (UniProt Q8ND76)
probe-labelled cysteine peptide fold change (10 µM): -0.177
probe-labelled cysteine peptide fold change (50 µM): 0.00973

CAPZB_P47756_147_GCWDSIHVVEVQEK (UniProt P47756)
probe-labelled cysteine peptide fold change (10 µM): 0.126
probe-labelled cysteine peptide fold change (50 µM): 0.0545

CAPZB_P47756_206_DETVSDCSPHIANIGR (UniProt P47756)
probe-labelled cysteine peptide fold change (10 µM): -0.0201
probe-labelled cysteine peptide fold change (50 µM): 0.00333

CCDC22_O60826_215_VASLLEHHALQLCQQTGR (UniProt O60826)
probe-labelled cysteine peptide fold change (10 µM): -0.0248
probe-labelled cysteine peptide fold change (50 µM): 0.208

CARD9_Q9H257_454_GCLAGGGSPK (UniProt Q9H257)
probe-labelled cysteine peptide fold change (10 µM): -0.148
probe-labelled cysteine peptide fold change (50 µM): -0.0852

CCDC88B_A6NC98_1382_AQSSLCLRDETLAGGQR (UniProt A6NC98)
probe-labelled cysteine peptide fold change (10 µM): -0.453
probe-labelled cysteine peptide fold change (50 µM): -0.675

CASP8_Q14790_312+313_IYQLMDHSNMDCFICCILSHGDK (UniProt Q14790)
probe-labelled cysteine peptide fold change (10 µM): 0.0393
probe-labelled cysteine peptide fold change (50 µM): -0.506

CCAR2_Q8N163_324_CCMLFVDDMAEPR (UniProt Q8N163)
probe-labelled cysteine peptide fold change (10 µM): -0.0436
probe-labelled cysteine peptide fold change (50 µM): -0.0686

CCDC97_Q96F63_218_TPTHQPPKPGSPGRPACPLSNLLLQSYEER (UniProt Q96F63)
probe-labelled cysteine peptide fold change (10 µM): -0.272
probe-labelled cysteine peptide fold change (50 µM): -0.849
